This experiment has as its target Histone deacetylase 3 (HDAC3), as co-expressed with SMRT 350–480 (human) (UniProt O15379). The experiment can be described thus: co-purification; HDAC3 and SMRT 350–480 expressed in HEK-293 cells and purified as a complex as described in [37]; complex shown to be enzymatically active.

Amino acid sequences for entries named in this document (tags omitted). Residues count along the entry.
UniProt O15379: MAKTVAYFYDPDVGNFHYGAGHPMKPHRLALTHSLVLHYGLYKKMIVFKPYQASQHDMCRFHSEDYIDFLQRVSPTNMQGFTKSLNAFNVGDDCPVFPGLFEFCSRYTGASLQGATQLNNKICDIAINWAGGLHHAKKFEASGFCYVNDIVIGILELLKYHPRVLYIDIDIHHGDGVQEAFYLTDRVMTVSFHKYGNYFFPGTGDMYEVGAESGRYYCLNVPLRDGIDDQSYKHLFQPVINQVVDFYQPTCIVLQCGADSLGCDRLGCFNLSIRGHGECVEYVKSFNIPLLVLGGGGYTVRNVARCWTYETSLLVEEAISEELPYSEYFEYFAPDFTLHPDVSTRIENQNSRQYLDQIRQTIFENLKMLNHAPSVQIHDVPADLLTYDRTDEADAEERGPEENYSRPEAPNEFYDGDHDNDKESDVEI
UniProt Q9Y618, residues 350-480: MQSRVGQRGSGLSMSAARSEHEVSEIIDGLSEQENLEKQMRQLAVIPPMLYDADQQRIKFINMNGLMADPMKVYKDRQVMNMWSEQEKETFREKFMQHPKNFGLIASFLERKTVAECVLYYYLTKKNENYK

Binding data for 1 substance are collected here from paper PMC4661566.

No constants are given. Whether binding was seen depends on the method and setting. Some results given as binding are weak or reduced against the parent protein; the word gives no strength.

For “SMRT 350–480 (silencing mediator of retinoic and thyroid receptors, deacetylase-activating domain) (from UniProt Q9Y618 350-480) (domain or fragment)”, the binding result is given as “binds”.
